Measurements reported in patent US20040157296A1 (HESKA, published 2004).
Results are given in words; binding and its absence hold for the method and conditions named. Some binding calls cover weakened binding; strength is not graded here.

Biological target: T1, canine B7-1 protein expressed on L-pCMV-nCaB7-11385 recombinant L cells (PCaB7-1304) (canine)
T1 sequence: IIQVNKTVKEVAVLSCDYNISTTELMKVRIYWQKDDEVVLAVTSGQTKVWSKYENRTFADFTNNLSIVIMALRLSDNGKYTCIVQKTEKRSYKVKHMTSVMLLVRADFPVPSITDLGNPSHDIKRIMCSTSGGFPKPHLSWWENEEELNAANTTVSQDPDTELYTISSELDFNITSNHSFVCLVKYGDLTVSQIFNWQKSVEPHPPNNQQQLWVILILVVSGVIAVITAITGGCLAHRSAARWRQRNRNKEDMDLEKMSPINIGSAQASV
Assay: flow cytometry on L cell transfectants

B1: Recombinant canine CTLA4 protein produced in Pichia (extracellular domain of the mature canine CTLA4 protein) (receptor)
chain: GMHVAQPAVVLASSRGVASFVCEYGSSGNAAEVRVTVLRQAGSQMTEVCAATYTVEDELAFLDDSTCTGTSSGNKVNLTIQGLRAMDTGLYICKVELMYPPPYYVGMGNGTQIYVIDPEPCPDSD
binding: binds
